Experimental data: patent US20230057263A1
Results are given in words; binding and its absence hold for the method and conditions named. Some results given as binding are weak or reduced against the parent protein; the word gives no strength.

Sequences of proteins named here, by UniProt entry; tags and fusion partners are left off. A change or cut given only in a name is not applied to a line headed by its entry.
UniProt P07766: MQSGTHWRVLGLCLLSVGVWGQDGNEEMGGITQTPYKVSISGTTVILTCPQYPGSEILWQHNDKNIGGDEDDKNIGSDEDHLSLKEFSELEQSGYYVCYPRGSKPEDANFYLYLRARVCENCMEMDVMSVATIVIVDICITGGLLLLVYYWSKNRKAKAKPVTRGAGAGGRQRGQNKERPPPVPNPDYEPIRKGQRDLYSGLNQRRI

Legend:
[1] = biological target: AGS73.15 (MS497); test: flow cytometry, blocking of AGS73.15 (200 ng/ml) binding to CD3ε on human T cells; AGS73.15 detected with anti-human IgG Fc-PE
[2] = biological target: AGS73.15 (MS497); test: flow cytometry; inhibition of AGS73.15 binding to human T cells by titrated anti-ID
[3] = biological target: human CD3 epsilon (CD3ε) (human) (UniProt P07766); test: flow cytometry on human donor T cells
[4] = biological target: human CD3 epsilon (CD3ε) (human) (UniProt P07766); test: flow cytometry on human T cells

| Binder | binding [1] | binding [2] | binding [3] | binding [4] |
| --- | --- | --- | --- | --- |
| 6d59.id.1b54.1 (antibody, V domains shown) VH: DVQLQESGPGLVKPSQSLSLTCSVTGYSITSSYYWNWIRQFPGNKLEWMGSIMYDGNNNYNPSLKNRISITRDTSKNQFFLKLNSVTTEDTATYYCARNMADYFGNTYDALDYWGQGTSVTVSS VL: DILLTQSPGSLAVSLGQRATISCKASQSADYGGDSYMSWYQQKPGQPPKLLIYAASNLESGTPARFSGSGSGTDFTLNIHPVEEEDAATYYCQQGNEDPWTFGGGTKLEIKR | binds | binds | – | – |
| 6d59.id.1b61.1 (antibody, V domains shown) VH: DVQLQESGPGLVKPSQSLSLTCSVTGYSITSSYYWNWIRQFPGNKLEWMGYIMYDGNNNYNPSLKNRISITRDTSKNQFFLKLNSVTTEDTATYYCARNMADYFGNTYDALDYWGQGTSVTVSS VL: DILLTQSPGSLAVSLGQRATISCKASQSADYGGDSYMSWYQQKPGQPPKLLIYAASNLESGTPARFSGSGSGTDFTLNIHPVEEEDAATYYCQQGNEDPWTFGGGTKLEIKR | binds | binds | – | – |
| 6d59.id.1b67.1 (antibody, V domains shown) VH: QVTLKESGPGILKPSQTLSLTCSFSGFSLSTSGMGVGWIRQPSGKGLEWLAHIWWDDDKFYKPSLKNRLTISKDTSRNQVFLKITSVDTADAATYFCVRRSAYEAFTLDYWGQGTSVTVSS VL: DIMLTQSPASLAVSLGQRATISCKASQSVDYDGNGYLNWYQQKPGQPPKLLIYAASNLESGIPARFSGSGSGTDFTLNIHPVEEEDVATYYCQQSSEDPFTFGSGTKLEIKR | binds | binds | – | – |
| 6d58 (antibody, V domains shown) VH: QVHLVESGGGVVQPGRSLRLSCAASGFKFRSYGMHWVRQAPGKGLEWVAIIWYDGSKRYYADSVKGRFTISRDNSKNTLYLQMSSLRAEDTAVYYCARDLITGTTDYWGQGTLVTVSS VL: DVVMTQSPLSLPVTLGQPASISCRSSRSLVYSDGNTHLIWFQQRPGQSPRRLIYRVSNRVSGVPDRFSGSGSGTDFTLKISRVEAEDVGVYYCLQGAHWPYTFGQGTKLEIKR | – | – | binds | binds |
| 6d59 (antibody, V domains shown) VH: QVHLVESGGGVVQPGRSLRLSCAASGFKFRSYGMHWVRQAPGKGLEWVAIIWYDGSKRYYADSVKGRFTISRDNSKNTLYLQMSSLRAEDTAVYYCARDLITGTTDYWGQGTLVTVSS VL: DVVMTQSPLSLPVTLGQPASISCRSSRSLVYSDGNTHLIWFQQRPGQSPRRLIYRVSNRVSGVPDRFSGSGSGTDFTLKISRVEAEDVGVYYCLQGAHWPYTFGQGTKLEIKR | – | – | binds | binds |
